The supplement of paper PMC7125110
± gives the standard error. Many entries were measured with a wide error.

B1: glmS ribozyme (parent)
chain: AUAAAAGCGCCAGAACUACAGAAAUGUAGUUGACGAGGAGGAGGUUUAUCGAAUUUUCGGCGGAUGCCUCCAAA

Variants of: B1
Assay: KM; higher = weaker cofactor use; RNA array
Conditions: with glucosamine-6-phosphate
Method in brief: (§1)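 Glucosamine-6-phosphate in HEPES/KCl/Mg(OAc)2 buffer, at 40 μM to 10 mM, was flowed over barcoded ribozyme variants transcribed in situ by E. coli RNA polymerase on sequenced MiSeq chips. Tracking was through a hybridised Cy3 probe at 37 °C. kobs, kcat and KM came from exponential decay fits and weighted Michaelis–Menten fits of normalised per-tile medians.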

Variant	KM [µM]
G13C U31C	3460 ± 1200
G13U C58G	5540 ± 4700
G13U G41A	3540 ± 600
A14C C58G	5710 ± 4500
A14G A15G	205 ± 110
A14G G37A U54A	4940 ± 3400
A14G U46A	4160 ± 2300
A14U G32A	3720 ± 1400
A15C U57A	2770 ± 750
A15G C67G	2600 ± 330
A15G C70A	481 ± 310
A15G G32C	8170 ± 3300
A15G G41C	2170 ± 310
C16A G63A	14.8 ± 14
C16A U30A	1480 ± 790
C16A U54C	2480 ± 1300
C16A U69C	317 ± 290
C16G A64U	361 ± 210
C16U A42C	253 ± 130
C16U C61G	322 ± 170
C16U C61U	480 ± 260
C16U G29U	1560 ± 910
C16U G40C	1020 ± 220
C16U G41A	1010 ± 720
C16U U65C	2290 ± 1100
C19A G59U	27000 ± 9200

Taken from above (two entries):
Variant	KM [µM]
A14C C58G	5710 ± 4500
A14G A15G	205 ± 110

(further entries)

Variant	KM [µM]
G29A A39U A42U	3000 ± 790
G29A G40U	1130 ± 630
G29A U30A	4350 ± 2400
G29U A64G	1770 ± 1400
G29U C68U	1710 ± 230
G29U G59A	2710 ± 2300
U30A U55A C71U	1100 ± 720
U30C C70G	28 ± 24
U30C U46G	5040 ± 1000
U30G U45C	1300 ± 900
U31A A39G	4340 ± 1300
U31A C71G	256 ± 210
U31A G32C	1950 ± 290
U31A G66U	1380 ± 190
U31C A33U	1150 ± 800
U31C G32A C58A U65G	2320 ± 190
U31G G41C	1570 ± 1200
U31G G41U	1350 ± 760
G32A	4250 ± 750
G32A C58U	1170 ± 720
G32A G59A	1330 ± 1200
G32C	3460 ± 110
G32C A42G	10600 ± 3200
G32C U47A	1450 ± 320
G32U G37A	3700 ± 3100
A33C C58U	38.4 ± 24

Variant	KM [µM]
A33C U56A	10000 ± 6600
A33U U56A	7840 ± 7800
A36G C70U	482 ± 360
A36U A52G	766 ± 740
G37C U54A U69G	146 ± 130
G37U A64G	801 ± 760
G38C G66U	27.3 ± 24
A39C C67G	2120 ± 1200
A39C U56G	4460 ± 1800
A39G U45A	581 ± 220
A39G U57C	7160 ± 3700
A39U	3040 ± 720
A39U A64G	3390 ± 1700
G40A G59U	17700 ± 4800
G40A U65A	2690 ± 980
G40C A52U	857 ± 810
G40C C70U C71G	678 ± 490
G40C G66A	1760 ± 1200
G40C U47G	1190 ± 440
G40U U46C	2420 ± 530
G40U U57A	16800 ± 2900
G41C A52U	808 ± 440
G41C C71A	609 ± 480
G41U U45G	909 ± 340
A42C U46A	640 ± 380
A42G U56G	925 ± 600

Variant	KM [µM]
A42G U65A	1560 ± 860
A42U C67A	1400 ± 460
A42U U46A	4410 ± 1900
A42U U54C	1140 ± 660
A42U U69G	388 ± 270
G43A	1560 ± 420
G43A A53C	20700 ± 1600
G43A U45A	2720 ± 100
G43U U55C	177 ± 140
G44A U54G	936 ± 680
G44U U56C	4890 ± 1500
U45A A48G	1450 ± 820
U45A G59A	15500 ± 6800
U45A U49G	1560 ± 570
U45A U54G	477 ± 290
U45A U55C	733 ± 530
U45A U65C	1770 ± 290
U45C A53G	3250 ± 1900
U45G A64G	2790 ± 990
U45G U54G	3940 ± 2400
U46A C71U	2020 ± 580
U46A U69C	1590 ± 770
U46C C58A	14200 ± 4400
U46G C70A	354 ± 280
U46G U47A	2200 ± 1400
U47A C58G	1740 ± 440

Variant	KM [µM]
U47A G59U	16400 ± 660
U47C A53U	1150 ± 280
U47C C71G	908 ± 460
U47G C67G	998 ± 620
A48C U54C	2490 ± 1300
A48G A52G	919 ± 460
A48G A53G	2670 ± 1600
A48G A53U	1680 ± 1100
A48G C68U	28600 ± 11000
A48U U55A U56C	543 ± 380
U49G U55G	1400 ± 250
G51A U54A	123 ± 100
G51U C71U	20.8 ± 18
A52C U54G G63A	135 ± 120
A52G C70A	59.1 ± 34
A52U A64G	2510 ± 1700
A52U C67A	1480 ± 240
A53C C58U	11600 ± 5100
A53U U55A	3780 ± 2200
U54A	2360 ± 680
U54A A64U	606 ± 450
U54A G59U	23800 ± 5000
U54C	2290 ± 240
U54C G59U	8760 ± 8000
U54G	1870 ± 470
U54G A64U	1560 ± 780

Pulled one by one from the entries so far (6):
Variant	KM [µM]
U47C C71G	908 ± 460
G38C G66U	27.3 ± 24
U46A U69C	1590 ± 770
U45C A53G	3250 ± 1900
U47A G59U	16400 ± 660
G29A A39U A42U	3000 ± 790

Exported as a markdown table: entries from further up

| Variant | KM [µM] |
| --- | --- |
| C16U A42C | 253 ± 130 |
| G41C A52U | 808 ± 440 |
| U45A G59A | 15500 ± 6800 |
| U46A C71U | 2020 ± 580 |
| A53U U55A | 3780 ± 2200 |
| U54A G59U | 23800 ± 5000 |

Further results

Variant	KM [µM]
U54G C58U	6130 ± 820
U54G U55A C70G	46.3 ± 35
U55A A64C	2210 ± 1300
U55A U65C C67A	242 ± 200
U56C C58G	3700 ± 3700
U56C G66A	4140 ± 2400
U56C U65G	2740 ± 1400
U56G A64G	2680 ± 1000
U56G C71A	422 ± 340
U57C A64G	3140 ± 87
U57C U65A	1410 ± 140
C58A C61A	31.4 ± 21
C58G G66A	658 ± 540
G59A A64G	1560 ± 1000
G59U C71U	1450 ± 860
G59U G63A	315 ± 270
G60A	457 ± 330
G60C	1990 ± 1700
C61G C71U	27.5 ± 16
G63U A64C G66C	29 ± 23
A64U C67A	1000 ± 750
U65C C67G	193 ± 110
C67A C71A	1150 ± 700
C67G C70U	1750 ± 88
C68G U69C	97.5 ± 54

Variants of: B1
Assay: self-cleavage kobs at 160 uM GlcN6P; higher = faster cleavage; RNA array
Conditions: with glucosamine-6-phosphate
Method in brief: as §1

Variant	self-cleavage kobs at 160 uM GlcN6P [s⁻¹]
G13U C58G	2.94e-05 ± 1.5e-05
C16A U69C	2.93e-05 ± 1.9e-05
G32C	< 1e-05
A39G U57C	2.9e-05 ± 1.9e-05
G41C C71A	1.26e-05 ± 1.2e-05
U45A A48G	2.71e-05 ± 1.5e-05
U47C C71G	2.38e-05 ± 1.8e-05
U54G A64U	< 1e-05
U56C U65G	4.26e-05 ± 2.6e-05
C67A C71A	2.92e-05 ± 2e-05
C67G C70U	1.23e-05 ± 1.2e-05

Variants of: B1
Assay: self-cleavage kobs at 40 uM GlcN6P; higher = faster cleavage; RNA array
Conditions: with glucosamine-6-phosphate
Method in brief: as §1

Variant	self-cleavage kobs at 40 uM GlcN6P [s⁻¹]
A15G C67G	1.32e-05 ± 7.8e-06
A15G G41C	1.82e-05 ± 1e-05
C16A U69C	2.52e-05 ± 2.1e-05
C16U U65C	2.51e-05 ± 1.9e-05
G29A A39U A42U	2.41e-05 ± 1.6e-05
U30C C70G	2.69e-05 ± 1.4e-05
U31G G41U	2.78e-05 ± 2.1e-05
G44A U54G	1.33e-05 ± 1e-05

Variants of: B1
Assay: self-cleavage kobs at 640 uM GlcN6P; higher = faster cleavage; RNA array
Conditions: with glucosamine-6-phosphate
Method in brief: as §1

Variant	self-cleavage kobs at 640 uM GlcN6P [s⁻¹]
A15G G32C	4.12e-05 ± 2.6e-05
U31G G41C	3.39e-05 ± 1.9e-05
G32C A42G	2.39e-05 ± 2.1e-05
G32U G37A	1.77e-05 ± 1.3e-05
G37C U54A U69G	2.76e-05 ± 2.2e-05
A42U U46A	1.51e-05 ± 8.9e-06
G43U U55C	2.83e-05 ± 1.6e-05
A48G A53G	1.39e-05 ± 9.7e-06
G59U C71U	2.66e-05 ± 1.7e-05

Variants of: B1
Assay: self-cleavage kobs at 10000 uM GlcN6P; higher = faster cleavage; RNA array
Conditions: with glucosamine-6-phosphate
Method in brief: as §1

Variant	self-cleavage kobs at 10000 uM GlcN6P [s⁻¹]
U30C U46G	2.18e-05 ± 1.2e-05
G32A G59A	1.55e-05 ± 1.2e-05
A33U U56A	1.96e-05 ± 1.1e-05
A39C C67G	0.00295 ± 0.002
G41C A52U	1.17e-05 ± 7.6e-06
G43A A53C	2.16e-05 ± 1.2e-05
U47A G59U	2.23e-05 ± 1.5e-05
A53C C58U	1.77e-05 ± 1.2e-05
U56C C58G	2.02e-05 ± 1.3e-05
U57C U65A	1.68e-05 ± 1.3e-05

Variants of: B1
Assay: self-cleavage kobs at 2500 uM GlcN6P; higher = faster cleavage; RNA array
Conditions: with glucosamine-6-phosphate
Method in brief: as §1

Variant	self-cleavage kobs at 2500 uM GlcN6P [s⁻¹]
U31C A33U	1.67e-05 ± 1.2e-05
U31C G32A C58A U65G	2.4e-05 ± 1.9e-05
G32U G37A	1.42e-05 ± 8.5e-06
A33C U56A	2.95e-05 ± 1.6e-05
U54A G59U	1.88e-05 ± 1.4e-05
A64U C67A	1.45e-05 ± 1.2e-05
U65C C67G	4.33e-05 ± 3.4e-05
C68G U69C	1.67e-05 ± 1.7e-05
